Here are results for one compound from PMC7717681, “Biochemical and structural characterisation of a protozoan beta-carbonic anhydrase from Trichomonas vaginalis” (Journal of Enzyme Inhibition and Medicinal Chemistry, 2020).

By UniProt entry, the sequences of proteins in these tests, tags left out. Residues count along the entry.
UniProt A2ENQ8, 1-182: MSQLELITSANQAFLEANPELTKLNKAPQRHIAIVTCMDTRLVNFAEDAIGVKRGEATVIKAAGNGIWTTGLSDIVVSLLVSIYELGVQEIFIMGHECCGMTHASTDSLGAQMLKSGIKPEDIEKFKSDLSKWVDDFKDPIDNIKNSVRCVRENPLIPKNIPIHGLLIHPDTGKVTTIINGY

The test has as its target T1, TvaCA1 (Trichomonas vaginalis, UniProt A2ENQ8).
T1 construct: gene TVAG_005270
In words: biochemical.

One may read the Ki as a dissociation constant, usually derived from enzyme kinetics or from competition with a known ligand. The low end stands for a stronger hold on the target, the high end for a looser hold on the target. For the compound `CC(=O)Nc1nnc(S(N)(=O)=O)s1` [AAZ, acetazolamide], the Ki was determined as 391 nM.
